Experimental data from paper PMC5388395.
Results are given in words; binding and its absence hold for the method and conditions named. In cells and extracts the contact can be indirect. Some results given as binding are weak or reduced against the parent protein; the word gives no strength. Tags and fused reporters may be left off the sequences shown.

Key:
Test in all cases: co-IP; extracts of cells expressing a Tap-tagged SAGA subunit and HA-tagged Not5 on IgG sepharose, TEV elution, western blot with CBP or HA antibodies; untagged cells as control
Ada1-TAP (S. cerevisiae) = biological target: T1, Ada1-TAP (S. cerevisiae) (UniProt Q12060)
T1 sequence: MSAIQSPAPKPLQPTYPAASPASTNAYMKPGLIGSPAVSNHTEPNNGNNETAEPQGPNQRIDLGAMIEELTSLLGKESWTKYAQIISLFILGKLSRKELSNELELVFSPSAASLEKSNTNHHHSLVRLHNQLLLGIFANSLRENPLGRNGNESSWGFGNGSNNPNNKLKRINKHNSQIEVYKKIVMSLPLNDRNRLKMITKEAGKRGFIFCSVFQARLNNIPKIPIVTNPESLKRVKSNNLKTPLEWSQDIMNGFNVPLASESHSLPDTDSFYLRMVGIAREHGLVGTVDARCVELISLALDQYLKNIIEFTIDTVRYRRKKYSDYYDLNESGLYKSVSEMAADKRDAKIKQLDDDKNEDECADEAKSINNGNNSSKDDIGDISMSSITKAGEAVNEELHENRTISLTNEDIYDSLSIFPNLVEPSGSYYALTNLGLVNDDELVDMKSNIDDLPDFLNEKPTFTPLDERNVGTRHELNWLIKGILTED

Ada2-TAP (S. cerevisiae) = biological target: T2, Ada2-TAP (S. cerevisiae) (UniProt Q02336)
T2 sequence: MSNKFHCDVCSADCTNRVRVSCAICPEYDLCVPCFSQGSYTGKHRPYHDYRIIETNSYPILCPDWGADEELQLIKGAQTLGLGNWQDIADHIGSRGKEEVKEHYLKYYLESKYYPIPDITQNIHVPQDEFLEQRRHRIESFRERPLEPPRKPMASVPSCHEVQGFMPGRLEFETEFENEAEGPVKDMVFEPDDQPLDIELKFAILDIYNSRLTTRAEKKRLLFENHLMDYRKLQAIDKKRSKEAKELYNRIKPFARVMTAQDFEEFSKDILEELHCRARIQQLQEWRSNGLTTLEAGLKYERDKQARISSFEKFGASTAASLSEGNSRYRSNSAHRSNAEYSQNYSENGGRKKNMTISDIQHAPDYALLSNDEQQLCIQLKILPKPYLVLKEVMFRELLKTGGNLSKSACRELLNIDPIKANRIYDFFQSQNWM

[1] = biological target: T3, Spt20-TAP (S. cerevisiae) (UniProt P50875)
T3 sequence: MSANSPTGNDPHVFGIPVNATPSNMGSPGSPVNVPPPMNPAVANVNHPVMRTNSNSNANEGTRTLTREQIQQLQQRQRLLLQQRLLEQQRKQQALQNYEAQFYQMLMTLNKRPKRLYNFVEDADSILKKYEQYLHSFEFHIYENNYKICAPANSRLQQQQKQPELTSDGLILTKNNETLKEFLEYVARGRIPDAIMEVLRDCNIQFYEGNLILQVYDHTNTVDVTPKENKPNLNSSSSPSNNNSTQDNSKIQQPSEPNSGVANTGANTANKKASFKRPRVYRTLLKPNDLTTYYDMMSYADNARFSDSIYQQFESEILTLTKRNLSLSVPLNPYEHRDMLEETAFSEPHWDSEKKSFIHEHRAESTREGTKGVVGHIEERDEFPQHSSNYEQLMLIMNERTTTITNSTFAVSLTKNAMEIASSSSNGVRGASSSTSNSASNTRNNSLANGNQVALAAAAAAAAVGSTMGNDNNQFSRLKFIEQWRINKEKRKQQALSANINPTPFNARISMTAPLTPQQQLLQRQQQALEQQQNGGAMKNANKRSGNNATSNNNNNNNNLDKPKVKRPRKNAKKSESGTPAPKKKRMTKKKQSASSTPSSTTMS

Spt8-TAP (S. cerevisiae) = biological target: T4, Spt8-TAP (S. cerevisiae) (UniProt P38915)
T4 sequence: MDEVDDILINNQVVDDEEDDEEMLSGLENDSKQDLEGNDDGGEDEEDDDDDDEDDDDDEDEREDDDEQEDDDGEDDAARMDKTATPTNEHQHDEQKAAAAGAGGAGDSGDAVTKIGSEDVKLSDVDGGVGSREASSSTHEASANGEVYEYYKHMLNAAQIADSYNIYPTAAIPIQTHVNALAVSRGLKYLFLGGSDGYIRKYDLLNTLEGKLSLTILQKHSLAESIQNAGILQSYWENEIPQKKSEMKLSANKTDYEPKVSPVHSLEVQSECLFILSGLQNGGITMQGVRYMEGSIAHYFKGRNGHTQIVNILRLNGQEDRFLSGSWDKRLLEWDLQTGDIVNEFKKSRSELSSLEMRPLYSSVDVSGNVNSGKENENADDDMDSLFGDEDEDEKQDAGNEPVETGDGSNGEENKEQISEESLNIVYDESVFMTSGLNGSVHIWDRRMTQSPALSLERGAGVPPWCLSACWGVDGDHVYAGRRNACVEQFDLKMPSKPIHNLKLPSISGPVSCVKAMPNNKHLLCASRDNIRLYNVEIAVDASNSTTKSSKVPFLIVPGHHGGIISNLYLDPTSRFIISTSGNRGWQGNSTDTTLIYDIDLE

B1: Not5-HA (protein, UniProt Q12514 1-560)
chain: MSQRKLQQDIDKLLKKVKEGIEDFDDIYEKFQSTDPSNSSHREKLESDLKREIKKLQKHRDQIKTWLSKEDVKDKQSVLMTNRRLIENGMERFKSVEKLMKTKQFSKEALTNPDIIKDPKELKKRDQVLFIHDCLDELQKQLEQYEAQENEEQTERHEFHIANLENILKKLQNNEMDPEPVEEFQDDIKYYVENNDDPDFIEYDTIYEDMGCEIQPSSSNNEAPKEGNNQTSLSSIRSSKKQERSPKKKAPQRDVSISDRATTPIAPGVESASQSISSTPTPVSTDTPLHTVKDDSIKFDNSTLGTPTTHVSMKKKESENDSEQQLNFPPDRTDEIRKTIQHDVETNAAFQNPLFNDELKYWLDSKRYLMQPLQEMSPKMVSQLESSLLNCPDSLDADSPCLYTKPLSLPHPTSIFFPNEPIRFVYPYDVPLNLTNNENDTDNKFGKDSKAKSKKDDDIYSRTSLARIFMKFDLDTLFFIFYHYQGSYEQFLAARELFKNRNWLFNKVDRCWYYKEIEKLPPGMGKSEEESWRYFDYKKSWLARRCGNDFVYNEEDFEKL
- binding (Ada1-TAP (S. cerevisiae)): no binding
- binding (Ada2-TAP (S. cerevisiae)): binds
- binding [1]: binds
- binding (Spt8-TAP (S. cerevisiae)): no binding
